Measurements taken from patent US20120184586A1, “DESFERRITHIOCIN POLYETHER ANALOGUES AND USES THEREOF” (University of Florida Research Foundation, Inc., priority 2009, published 2012).
Some results were stated once for a whole list of compounds, not compound by compound.

Tested on: non-iron-overloaded, bile duct-cannulated rats
Experiment: Chelator-induced iron clearance (ICE, biliary ferrokinetics) in non-iron-overloaded, bile duct-cannulated rodents
Type: in vivo, rat (male Sprague-Dawley)
Conditions: 300 μmol/kg PO

CCOC(=O)[C@@]1(C)CSC(c2ccc(OCCOCCOC)cc2O)=N1 [ligand 7, ethyl (S)-4,5-dihydro-2-[2-hydroxy-4-(3,6-dioxaheptyloxy)phenyl]-4-methyl-4-thiazolecarboxylate]
time of maximum iron clearance (MIC), biliary ferrokinetics: 12 to 15 h
